From PubChem BioAssay AID2685 (National Center for Advancing Translational Sciences (NCATS), 2010)
The list shows a part of the results. The main result of the screen is listed elsewhere. These columns were measured beside it and carry no call. The list favours compounds with an active or inconclusive main result. Potencies come from curve fits of mixed quality, noted in brackets.

Experiment: qHTS Assay for Lipid Storage Modulators in Drosophila S3 Cells;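 on cell number change: cells counted by Cell Tracker Red CMTPX staining in the red channel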
Details: BODIPY lipid droplet fluorescence, 18-24 h; for cell number change: measured here: cell count max response, cells fed with added oleic acid
Outline: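 Drosophila S3 cells got compounds at several concentrations plus oleic acid (400 uM solution). Laser-scanning cytometry with 488 nm excitation read lipid droplets at 500-530 nm and cells at 575-640 nm. Percent activity was relative to 20 uM Triacsin C.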

[1] = measured here: cell number channel AC50, cells fed with added oleic acid
[2] = measured here: lipid fluorescence (Fed channel) AC50, cells fed with added oleic acid

Structure (SMILES) | cell number change [%] | AC50 [1] | AC50 [2]
CCOC(=O)c1ccc(N2C(=O)CC(N3CCN(C/C=C/c4ccccc4)CC3)C2=O)cc1 (stereo unspecified) | 39.7 | 16.4 µM [rising, single point] | 16.4 µM [rising, partial curve]
CC(=O)NCCCc1nc2ccccc2n1Cc1ccc(C)cc1 | 29.8 |  | 6.51 µM [falling, single point]
C=CCn1c(CSCc2ccc(C)cc2)nnc1SCC(=O)NCc1ccccc1 | 46.9 | 11.6 µM [rising, partial curve] | 2.91 µM [falling, partial curve]
COc1ccccc1NC(=O)Nc1nc(CC(=O)Nc2ccc(F)c(F)c2)cs1 |  | 1.64 µM [rising, partial curve] | 
COc1ccc(/C=C2\SC(=S)N(NS(=O)(=O)c3ccccc3)C2=O)c(OC)c1 | 57 | 7.31 µM [rising, partial curve, poor fit] | 29.1 µM [rising, single point]
Cn1c(=O)c(C(N)=S)cn(-c2ccccc2)c1=O | 6.94 |  | 
CCC(CC)C(=O)NCc1cccnc1 | 40.8 | 3.66 µM [rising, full curve] | 3.26 µM [rising, full curve]
COc1cccc(NC(=O)CN2C(=O)NC(C)(CC(C)C)C2=O)c1 (stereo unspecified) | 61.2 |  | 1.16 µM [rising, full curve]
COc1ccc(S(=O)(=O)CCC(=O)Nc2c(C)cccc2C)cc1 | -7.8 |  | 2.91 µM [rising, single point]
CC(C)c1nc(SCC(=O)Nc2ccc(C(=O)O)cc2)c2c3c(sc2n1)CCCC3 | 15 |  | 
O=C(NCCc1ccc(Cl)cc1)c1ccc2ccccc2n1 | 5 |  | 16.4 µM [rising, single point]
Cc1ccc(OCCC(=O)Nc2ccc(C)c(S(=O)(=O)N3CCOCC3)c2)cc1 | 5.33 |  | 0.0731 µM [rising, full curve, poor fit]
O=C(CCCCCN1C(=O)CCC1=O)Nc1ncn[nH]1 | -54.4 | 20.6 µM [falling, partial curve, poor fit] | 
CC(NC(=O)c1ccccc1Br)c1nnc(SCC(=O)NC2=NCCS2)n1C (stereo unspecified) | -18.4 |  | 
CCOc1ccc(S(=O)(=O)n2cc(-c3ccccc3)c(N)n2)cc1 | 2.23 |  | 
Cc1ccc(S(=O)(=O)c2nnn3c2nc(N2CCOCC2)c2ccccc23)c(C)c1 |  | 0.092 µM [rising, partial curve, poor fit] | 
Cc1nc(N)ncc1Sc1ccc(Cl)cc1 | 16.2 |  | 29.1 µM [rising, single point]
Cc1ccc(NCC(=O)N/N=C/c2cccn2C)cc1 | 11.4 |  | 32.6 µM [rising, single point]
O=C(CSc1n[nH]c(-c2ccco2)n1)Nc1ccccc1F | 10.4 |  | 
COc1cccc(Cn2nnc3c(=O)[nH]c(C4CCCN(C(=O)c5ccccc5Cl)C4)nc32)c1 (stereo unspecified) | -79.8 | 20.6 µM [falling, partial curve] | 9.2 µM [falling, partial curve]
Cc1cc(N/C(=N\S(=O)(=O)c2ccc(F)cc2F)c2ccccc2)no1 | 20.5 |  | 0.731 µM [rising, single point]

Structure (SMILES) | cell number change [%] | AC50 [1] | AC50 [2]
CCN(CC)CCNC(=O)c1[nH]c2ccc(OCc3ccccc3)cc2c1C | 9.38 |  | 
COc1ccc2ccccc2c1C(O)c1nccn1C (stereo unspecified) | -5.85 |  | 
CCN1CCSc2ccc(C(=O)NCc3cccc(Br)c3)cc21 | 1.15 |  | 
Oc1ccc(Cl)cc1CNCc1cccc2ccccc12 | -15.2 | 4.11 µM [falling, single point] | 
Cc1cc(C(=O)NNC(=O)c2sccc2C)c(C)o1 | -7.98 |  | 9.2 µM [rising, partial curve, poor fit]
O=C(O)c1cnn(-c2nc(-c3ccc(F)cc3)cs2)c1C(F)(F)F | -45.5 | 1.3 µM [falling, full curve] | 0.92 µM [falling, full curve]
CS(=O)(=O)N(Cc1ccc(F)cc1)Cc1nc2ccccc2c(=O)[nH]1 | 19.5 |  | 
CC(C)n1cc(NC(=O)COc2ccccc2Cl)cn1 | 18.1 |  | 
C=CCn1c(SCC(N)=O)nnc1-c1cccc(Br)c1 | 5.37 | 0.116 µM [falling, single point] | 2.31 µM [rising, partial curve]
CCCC1CCC(=C(C#N)C(N)=O)CC1 (stereo unspecified) | 6.44 |  | 
CN(C)c1ccc(/C=C2\C(=N)N3N=C(CC(=O)N4CCCCC4)SC3=NC2=O)cc1 | 64 | 16.4 µM [rising, single point] | 
CCNC(=O)NC(=O)C(C)Oc1ccc(C(=O)OC)cc1 (stereo unspecified) | -2.22 |  | 1.46 µM [falling, full curve, poor fit]
COc1cccc(N2CCN(S(=O)(=O)c3ccc4c(c3)oc(=O)n4C)CC2)c1 | 59.2 |  | 
C/C(=N\NC(=O)c1ccc(CSc2nncn2C)cc1)c1ccc(Cl)cc1 | -58.6 | 20.6 µM [falling, partial curve] | 3.26 µM [rising, partial curve, poor fit]
COc1ccc(-n2nc(C(=O)NCC(=O)N3CC(C)CC(C)C3)c3ccccc3c2=O)cc1 (stereo unspecified) | -6.76 |  | 0.58 µM [falling, single point]
CC(Oc1ccc(Cl)cc1Cl)C(=O)NN=C1CCN(C)CC1 (stereo unspecified) | 9.11 |  | 16.4 µM [falling, single point]
CC(C)N(CC(N)=O)c1ncnc2sc(-c3ccccc3)cc12 | -13.9 |  | 29.1 µM [rising, single point]
CC(C)(C)NC(=O)NC(=O)CSc1ccc(S(=O)(=O)N2CCOCC2)cn1 | -3.16 |  | 5.17 µM [falling, single point]
COc1cc(C(=O)Nc2nnc(S(=O)(=O)N3CCCCCC3)s2)cc(OC)c1OC | 2.67 |  | 20.6 µM [falling, single point]
Cn1nc(C(F)(F)F)c(C#N)c1N1CCN(c2ccc(F)cc2)CC1 | 42 | 1.3 µM [rising, full curve] | 
Cc1nc(CN2CCN(Cc3nc(C(c4ccccc4)c4ccccc4)no3)CC2)cs1 | -12.7 |  | 0.184 µM [falling, full curve, poor fit]

A different layout for part of the listing above.
COc1cccc(N2CCN(S(=O)(=O)c3ccc4c(c3)oc(=O)n4C)CC2)c1
  cell number change [%]: 59.2
C/C(=N\NC(=O)c1ccc(CSc2nncn2C)cc1)c1ccc(Cl)cc1
  cell number change [%]: -58.6
  AC50 [1]: 20.6 µM [falling, partial curve]
  AC50 [2]: 3.26 µM [rising, partial curve, poor fit]
COc1ccc(-n2nc(C(=O)NCC(=O)N3CC(C)CC(C)C3)c3ccccc3c2=O)cc1 (stereo unspecified)
  cell number change [%]: -6.76
  AC50 [2]: 0.58 µM [falling, single point]
CC(Oc1ccc(Cl)cc1Cl)C(=O)NN=C1CCN(C)CC1 (stereo unspecified)
  cell number change [%]: 9.11
  AC50 [2]: 16.4 µM [falling, single point]

Next part

Structure (SMILES) | cell number change [%] | AC50 [1] | AC50 [2]
CCSc1nnc(-c2cccs2)o1 | -52.9 | 29.1 µM [falling, single point] | 29.1 µM [falling, single point]
CNC(=O)/C(=C/c1ccc2c(c1)OCO2)NC(=O)c1ccc(Br)cc1 | 15.5 |  | 1.46 µM [rising, partial curve, poor fit]
CN1CCN(C2=C(Cl)C(=O)N(c3ccc(Cl)cc3)C2=O)CC1 | -3.03 |  | 29.1 µM [falling, single point]
Oc1c(C=C2N=c3ccccc3=N2)sc(=S)n1-c1ccccc1 | -9.15 |  | 6.51 µM [falling, single point]
COCCNC(=O)c1onc(CSc2ccc(F)cc2)c1C(=O)NCCOC | 22.6 |  | 8.2 µM [rising, partial curve]
Cn1c(Cc2c[nH]c3ccccc23)n[nH]c1=S | 107 | 20.6 µM [rising, single point] | 
CCCNC(=O)CSc1nnc(-c2ccc(F)cc2)o1 | 19.5 |  | 1.16 µM [rising, single point]
Cc1ccc(SCCNC(=O)/C=C/c2cccc([N+](=O)[O-])c2)cc1 | 43.9 | 5.17 µM [rising, partial curve] | 0.00411 µM [rising, partial curve, poor fit]
CCCS(=O)(=O)N1CCCC(C(=O)NCc2ccc3c(c2)OCO3)C1 (stereo unspecified) | -32.3 |  | 
CCOc1ccc(OCC)c(NC(=O)CCNS(=O)(=O)c2cc(Br)cnc2N)c1 |  |  | 1.64 µM [falling, partial curve]
CCc1nnc(NC(=O)CSc2nnc(-c3ccc(S(=O)(=O)N4CCCC4)cc3)n2CC)s1 | -19.2 |  | 29.1 µM [falling, single point]
C(=C\c1ccccc1)/C=N/N1CCN(c2ccccn2)CC1 | 43.5 | 2.91 µM [rising, full curve] | 3.66 µM [rising, partial curve]
CC1Cc2ccccc2N1C(=O)CCn1c(=O)oc2ccccc21 (stereo unspecified) | 30.3 |  | 
Cc1cc(N/N=C/c2ccccc2Br)nc2ccccc12 | 17.8 |  | 1.64 µM [rising, partial curve, poor fit]
CCN(CC)C(=O)c1oc2ccc(S(=O)(=O)N3CCCCCC3)cc2c1C | 10.9 | 1.03 µM [rising, full curve] | 
COc1ccc2c(c1)CCc1c(C(=O)NCCCn3ccnc3)noc1-2 | -10.1 |  | 0.411 µM [falling, full curve]
Cc1cc(C(=O)CCl)c(C)n1-c1c(C)n(C)n(-c2ccccc2)c1=O | -87.1 | 18.4 µM [falling, partial curve] | 4.61 µM [falling, full curve]
CC(C)OC(=O)C1C(=O)CC(C)(O)C(C(=O)OC(C)C)C1c1ccccc1 (stereo unspecified) | -7.84 |  | 4.11 µM [falling, single point]
O=C(CN(Cc1ccco1)C(=O)c1ccccc1F)Nc1ccccc1C(F)(F)F | -0.129 | 0.146 µM [rising, full curve, poor fit] | 29.1 µM [falling, single point]
CC(C)[C@@]1(c2ccccc2)ON(c2ccccc2C(F)(F)F)C1=O | -38.5 | 4.11 µM [falling, single point] | 9.2 µM [falling, single point]
